The other results are listed elsewhere or left out. Repeats are few or missing, and single values can be far off.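 The apoptosis fraction was the count of cleaved-PARP antibody-stained nuclei relative to all DNA-stained nuclei, imaged in 1,536-well plates. Screening doses were set so most cells survived, and baseline and induced cleaved-PARP levels vary greatly across cell lines.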
Key:
Test in all cases: cleaved PARP positive nuclei fraction relative to DMSO control; melanoma cells; higher = more apoptosis
Conditions in all cases: library dose: low library concentration; 72 h
501Mel = tested on: 501Mel
A101D = tested on: A101D
A2058 = tested on: A2058
A375 = tested on: A375
C32 = tested on: C32
CBRC008 = tested on: CBRC008 (line from a melanoma biopsy)
CBRC013 = tested on: CBRC013 (line from a melanoma biopsy)
CBRC014 = tested on: CBRC014 (line from a melanoma biopsy)
CBRC016 = tested on: CBRC016 (line from a melanoma biopsy)
CBRC017 = tested on: CBRC017 (line from a melanoma biopsy)
COLO792 = tested on: COLO792
COLO800 = tested on: COLO800
COLO829 = tested on: COLO829
G361 = tested on: G361
IPC-298 = tested on: IPC-298
IST-MEL1 = tested on: IST-MEL1
LB2518-MEL = tested on: LB2518-MEL
LOXIMVI = tested on: LOXIMVI
MEL-HO = tested on: MEL-HO

Structure (SMILES)	cleaved PARP positive nuclei fraction (501Mel)	cleaved PARP positive nuclei fraction (A101D)	cleaved PARP positive nuclei fraction (A2058)	cleaved PARP positive nuclei fraction (A375)	cleaved PARP positive nuclei fraction (C32)	cleaved PARP positive nuclei fraction (CBRC008)	cleaved PARP positive nuclei fraction (CBRC013)	cleaved PARP positive nuclei fraction (CBRC014)	cleaved PARP positive nuclei fraction (CBRC016)	cleaved PARP positive nuclei fraction (CBRC017)	cleaved PARP positive nuclei fraction (COLO792)	cleaved PARP positive nuclei fraction (COLO800)	cleaved PARP positive nuclei fraction (COLO829)	cleaved PARP positive nuclei fraction (G361)	cleaved PARP positive nuclei fraction (IPC-298)	cleaved PARP positive nuclei fraction (IST-MEL1)	cleaved PARP positive nuclei fraction (LB2518-MEL)	cleaved PARP positive nuclei fraction (LOXIMVI)	cleaved PARP positive nuclei fraction (MEL-HO)
CC(C)C[C@H](NC(=O)[C@H](Cc1ccccc1)NC(=O)c1cnccn1)B(O)O [Bortezomib] + COc1cc2c(Oc3ccc4[nH]c(C)cc4c3F)ncnc2cc1OCCCN1CCCC1 [cediranib] (first compound 0.001 µM, partner dose 0.4 µM)	275%	848%	65.4%	56.3%	127%	964%	89.5%	157%	290%	191%	67.3%	44.6%	131%	1600%	57.9%	161%	159%	55.5%	26%
Nc1ncn([C@H]2C[C@H](O)[C@@H](CO)O2)c(=O)n1 [decitabine] + COc1cc2c(Oc3ccc4[nH]c(C)cc4c3F)ncnc2cc1OCCCN1CCCC1 [cediranib] (first compound 0.1 µM, partner dose 0.4 µM)	89.5%	166%	148%	120%	181%	123%	111%	83.9%	105%	85.7%	77.7%	41.7%	141%	66.7%	72.9%	95.9%	50.9%	90.7%	72%
Cn1c(=O)n(-c2ccc(C(C)(C)C#N)cc2)c2c3cc(-c4cnc5ccccc5c4)ccc3ncc21 + COc1cc2c(Oc3ccc4[nH]c(C)cc4c3F)ncnc2cc1OCCCN1CCCC1 [cediranib] (first compound 0.004 µM, partner dose 0.4 µM)	374%	128%	74.4%	83.1%	80.2%	49.2%	65.3%	86.9%	52%	91.9%	51.8%	39.5%	150%	73%	47.2%	35.6%	185%	31.3%	144%
C[C@@H](Oc1cc(-c2cnn(C3CCNCC3)c2)cnc1N)c1c(Cl)ccc(F)c1Cl [Crizotinib] + O=C(CCCCCCC(=O)Nc1ccccc1)NO [vorinostat] (first compound 0.2 µM, partner dose 0.08 µM)	168%	85.2%	56.4%	63.6%	31%	101%	104%	75%	145%	69.9%	119%	44%	276%	108%	22.8%	48.2%	98.2%	21%	70.8%
Nc1nc(F)nc2c1ncn2[C@@H]1O[C@H](CO)[C@@H](O)[C@@H]1O [fludarabine] + CC1(C)NC(=O)N(c2ccc([N+](=O)[O-])c(C(F)(F)F)c2)C1=O [nilutamide] (first compound 0.2 µM, partner dose 1 µM)	1310%	121%	128%	7800%	74.2%	51.8%	813%	91.7%	134%	98.6%	114%	81.2%	44.9%	123%	194%	73.3%	91.1%	51.4%	36.5%
C=C(c1ccc(C(=O)O)cc1)c1cc2c(cc1C)C(C)(C)CCC2(C)C [Bexarotene] + CO[C@@H]1[C@H](N(C)C(=O)c2ccccc2)C[C@H]2O[C@]1(C)n1c3ccccc3c3c4c(c5c6ccccc6n2c5c31)C(=O)NC4 [Midostaurin] (first compound 2 µM, partner dose 0.08 µM)	91.4%	84.6%	93.8%	220%	101%	216%	109%	107%	239%	100%	112%	50.6%	87.2%	91.6%	47.8%	69.2%	50.6%	35.6%	79%
O=C(O)c1ccc2c(c1)nc(Nc1cccc(Cl)c1)c1ccncc12 + CC(C)(C)c1cnc(CSc2cnc(NC(=O)C3CCNCC3)s2)o1 [SNS-032] (first compound 0.4 µM, partner dose 0.01 µM)	97.3%	76%	43.6%	108%	49.5%	284%	105%	281%	81.2%	205%	125%	74.9%	78.5%	134%	94.2%	39.1%	51.1%	251%	78.8%
Nc1ncn([C@H]2C[C@H](O)[C@@H](CO)O2)c(=O)n1 [decitabine] + O=C(CCCCCCC(=O)Nc1ccccc1)NO [vorinostat] (first compound 0.1 µM, partner dose 0.08 µM)	97.9%	101%	136%	62%	148%	57.1%	99.9%	85.4%	167%	359%	131%	35.5%	79.4%	96.4%	169%	123%	317%	51.2%	93.3%
CS(=O)(=O)CCNCc1ccc(-c2ccc3ncnc(Nc4ccc(OCc5cccc(F)c5)c(Cl)c4)c3c2)o1 [lapatinib] + COc1cc2c(Oc3ccc4[nH]c(C)cc4c3F)ncnc2cc1OCCCN1CCCC1 [cediranib] (first compound 0.8 µM, partner dose 0.4 µM)	118%	755%	107%	125%	129%	166%	106%	93.2%	134%	91.8%	78.2%	107%	91.4%	89.2%	58.8%	148%	91.3%	188%	32.9%
Nc1ccn([C@@H]2O[C@H](CO)[C@@H](O)C2(F)F)c(=O)n1 [gemcitabine] + O=C(Nc1cccc(Cl)c1)Nc1ncc(CCNc2ncnc3ccsc23)s1 [SNS314] (first compound 0.0004 µM, partner dose 0.0008 µM)	101%	40.5%	120%	97.9%	92.2%	86.5%	122%	147%	169%	99.2%	28.2%	73.9%	83%	94.3%	195%	93.6%	85.8%	182%	70.1%
O=C(O)c1ccc2c(c1)nc(Nc1cccc(Cl)c1)c1ccncc12 + Cc1ccc(NC(=O)c2cccc(N(C)C)c2)cc1NC(=O)c1ccc(O)cc1 [ZM336372] (first compound 0.4 µM, partner dose 2 µM)	91.2%	83.6%	190%	131%	133%	58%	93.9%	156%	155%	161%	147%	57.2%	146%	137%	131%	64.1%	92.9%	51%	57.5%
CNC(=O)c1cc(Oc2ccc(NC(=O)Nc3ccc(Cl)c(C(F)(F)F)c3)cc2)ccn1 [sorafenib] + CC1(C)NC(=O)N(c2ccc([N+](=O)[O-])c(C(F)(F)F)c2)C1=O [nilutamide] (first compound 0.4 µM, partner dose 1 µM)	83.5%	80.3%	81.6%	97.3%	45.5%	105%	55%	86.2%	127%	93%	30.2%	41.8%	141%	183%	71.2%	93.4%	91%	59.1%	142%
Nc1ccn([C@@H]2O[C@H](CO)[C@@H](O)C2(F)F)c(=O)n1 [gemcitabine] + CN(C)S(=O)(=O)c1ccc2c(c1)/C(=C/c1cc3c([nH]1)CCCC3)C(=O)N2 [SU6656] (first compound 0.0004 µM, partner dose 0.4 µM)	85.7%	72.7%	142%	95.4%	86.7%	223%	132%	123%	227%	105%	79.1%	50.6%	108%	182%	49.7%	77.2%	104%	120%	146%
Cn1c(=O)n(-c2ccc(C(C)(C)C#N)cc2)c2c3cc(-c4cnc5ccccc5c4)ccc3ncc21 + NCC(=O)Nc1ccc(-n2nc(C(F)(F)F)cc2-c2ccc3c(ccc4ccccc43)c2)cc1 [OSU03012] (first compound 0.004 µM, partner dose 1 µM)	198%	111%	143%	1580%	150%	37.2%	116%	64.7%	92.1%	75.8%	109%	88.3%	40.2%	60.8%	42.7%	113%	121%	105%	44.5%
O=C(O)[C@@H]1[O][Sb](=[O])([O][Sb]2(=[O])[O][C@H]([C@H](O)CO)[C@H](O)[C@H](C(=O)O)[O]2)[O][C@H]([C@H](O)CO)[C@@H]1O (some centres undefined) [stibogluconate] + CC(C)(C)c1cnc(CSc2cnc(NC(=O)C3CCNCC3)s2)o1 [SNS-032] (first compound 2 µM, partner dose 0.01 µM)	84.8%	82.2%	91.4%	116%	99.2%	71.4%	223%	64.8%	154%	70.7%	59.1%	106%	55.9%	68.4%	166%	26.5%	40.5%	20.2%	54.7%
Cc1cc(Nc2cc(N3CCN(C)CC3)nc(/C=C/c3ccccc3)n2)n[nH]1 + COc1cc2c(Oc3ccc4[nH]c(C)cc4c3F)ncnc2cc1OCCCN1CCCC1 [cediranib] (first compound 0.04 µM, partner dose 0.4 µM)	103%	85.7%	68.7%	205%	256%	47.6%	93%	99.2%	53.1%	79.9%	97.4%	57.8%	52%	145%	61.3%	105%	111%	55.2%	66.7%

Record cards, from the list above. Order of values: cleaved PARP positive nuclei fraction (501Mel)	cleaved PARP positive nuclei fraction (A101D)	cleaved PARP positive nuclei fraction (A2058)	cleaved PARP positive nuclei fraction (A375)	cleaved PARP positive nuclei fraction (C32)	cleaved PARP positive nuclei fraction (CBRC008)	cleaved PARP positive nuclei fraction (CBRC013)	cleaved PARP positive nuclei fraction (CBRC014)	cleaved PARP positive nuclei fraction (CBRC016)	cleaved PARP positive nuclei fraction (CBRC017)	cleaved PARP positive nuclei fraction (COLO792)	cleaved PARP positive nuclei fraction (COLO800)	cleaved PARP positive nuclei fraction (COLO829)	cleaved PARP positive nuclei fraction (G361)	cleaved PARP positive nuclei fraction (IPC-298)	cleaved PARP positive nuclei fraction (IST-MEL1)	cleaved PARP positive nuclei fraction (LB2518-MEL)	cleaved PARP positive nuclei fraction (LOXIMVI)	cleaved PARP positive nuclei fraction (MEL-HO)
CNC(=O)c1cc(Oc2ccc(NC(=O)Nc3ccc(Cl)c(C(F)(F)F)c3)cc2)ccn1 [sorafenib] + CC1(C)NC(=O)N(c2ccc([N+](=O)[O-])c(C(F)(F)F)c2)C1=O [nilutamide] (first compound 0.4 µM, partner dose 1 µM) in the list: 83.5%	80.3%	81.6%	97.3%	45.5%	105%	55%	86.2%	127%	93%	30.2%	41.8%	141%	183%	71.2%	93.4%	91%	59.1%	142%
O=C(O)[C@@H]1[O][Sb](=[O])([O][Sb]2(=[O])[O][C@H]([C@H](O)CO)[C@H](O)[C@H](C(=O)O)[O]2)[O][C@H]([C@H](O)CO)[C@@H]1O (some centres undefined) [stibogluconate] + CC(C)(C)c1cnc(CSc2cnc(NC(=O)C3CCNCC3)s2)o1 [SNS-032] (first compound 2 µM, partner dose 0.01 µM) in the list: 84.8%	82.2%	91.4%	116%	99.2%	71.4%	223%	64.8%	154%	70.7%	59.1%	106%	55.9%	68.4%	166%	26.5%	40.5%	20.2%	54.7%
